PubChem BioAssay AID1347076 (National Center for Advancing Translational Sciences (NCATS), 2019)
Among all 400,000 compounds or so, about 13,000 (3.2%) were called active. This list was built around the results that the source calls inconclusive (neither active nor inactive); the mix of calls is not that of the screen. Calls come from the whole dose curve; as a rule, active = well fitted cell-killing curve with a large enough effect; inconclusive = small, poorly fitted or top-dose-only effect, or effect the other way; inactive = flat fitted curve, though single readings scatter. Potencies beside an inconclusive call are fits to weak or partial responses and may not hold up. The source holds several records for some structures; these can differ, active in one and inactive in another.

Test: qHTS assay for MDR1-selective chemotherapeutics: Primary screen using the drug-selected MDR subline cells KB-V1; note: nearly all actives have a fitted effect of over 60% in size
Conditions: KB-V1 MDR cells viability, CellTiter-Glo, 72 h; activity change, negative = cytotoxicity: at 46.1 µM (top of the series)
How it was run: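 Potencies derive from concentration-effect curves fitted to normalized luminescence (CellTiter-Glo) of KB-V1 cells treated for 72 h at 37 degrees C in phenol-red-free DMEM containing 10% FBS.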
% is set by controls: 0 for no effect and ±100 for the full control effect; potency is the fitted concentration of half-maximal effect.

| Compound | Potency | activity change, negative = cytotoxicity |
| --- | --- | --- |
| COc1ccc(CCNC(=O)NC23CC4CC(CC(C4)C2)C3)cc1 | inconclusive: 16.4 µM [cytotoxic, single point] |  |
| CC1CCCN(C(C(=O)Nc2ccc(C(C)C)cc2)c2ccc3c(c2)OCO3)C1 (configuration not stated) | inconclusive: 29.1 µM [cytotoxic, single point] |  |
| CC(NC(=O)CN1C(=O)COc2ccc(Cl)cc21)c1ccccc1 (configuration not stated) | inactive |  |
| Cc1ccc(-c2c(C(=O)N(C)Cc3ccccc3)oc(=O)c3ccccc23)cc1 | active: 4.61 µM |  |
| O=c1cc(-c2cccc(F)c2)[nH]c2ccccc12 | inconclusive: 0.517 µM [cytotoxic, full curve, poor fit] |  |
| COc1ccc(-c2csc3ncnc(N4CCN(S(=O)(=O)c5cccc(F)c5)CC4)c23)cc1 | inconclusive: 32.6 µM [cytotoxic, single point] |  |
| COc1ccc(C(=O)c2c(C(F)(F)F)oc3c2C(=O)c2ccccc2C3=O)cc1OC | active: 9.2 µM |  |
| CC(C)OP(=O)(OC(C)C)C(Nc1ccccc1)c1cccc([N+](=O)[O-])c1 (configuration not stated) | inconclusive: 0.0058 µM [rising, full curve, poor fit] |  |
| Cc1oc(C(C)(C)C)cc1C(=O)Nc1ccc2c(c1)OCCO2 | active: 20.6 µM |  |
| CC(C)NS(=O)(=O)c1ccc(NC(=O)C(C)Oc2ccc(C(=O)c3ccccc3)cc2)cc1 (configuration not stated) | inconclusive: 13 µM [cytotoxic, single point] |  |
| COc1ccc(CN2C(=O)[C@H]3Cc4c([nH]c5ccccc45)C(C)(C)N3C2=O)cc1 | inconclusive: 23.1 µM [cytotoxic, partial curve, poor fit] |  |
| COc1ccc(NC(=O)Nc2ccccc2F)cc1 | active: 18.4 µM |  |
| Cc1ccnc(NC(=O)C2CC(=O)N(Cc3ccccc3)C2)c1 (configuration not stated) | inactive |  |
| COCCN1C(=O)/C(=C/c2ccc(OCc3ccc(C(=O)O)cc3)c(OC)c2)SC1=Nc1ccccc1 | active: 20.6 µM |  |
| NS(=O)(=O)c1ccc(CCNC(=O)c2cncc(Br)c2)cc1 | inconclusive: 29.1 µM [cytotoxic, single point] |  |
| C/C(=N\N1C(C)CCCC1C)c1ccccc1O (configuration not stated) |  | inconclusive: 35.7% |
| Cc1cc(C(=O)N[C@H](c2ccccc2)[C@@]2(C)C[C@@H]2[C@@H](C)C(=O)Nc2ccc3ccccc3c2)n(C)n1 | inconclusive: 20.6 µM [cytotoxic, single point] |  |
| CC(=O)Nc1c(Cl)cc2c(c1Cl)C(=O)c1ccccc1-2 | inactive |  |
| CC(C)Sc1nc(SCC(=O)O)c2c3c(sc2n1)COC(C)(C)C3 | inactive |  |
| Cc1ccc(NC(=O)C2CCCN2C(=O)Oc2ccccc2)cc1C (configuration not stated) | active: 14.6 µM |  |
| Cc1ccc(NC(=O)C2CCCN2S(=O)(=O)c2ccc3c(c2)n(C)c(=O)c(=O)n3C)c(C)c1 (configuration not stated) | inactive |  |
| O=[N+]([O-])c1cccc(S(=O)(=O)Nc2ccc(Cc3ccncc3)cc2)c1 | active: 16.4 µM |  |
| CSc1ccccc1C(=O)Nc1ccc(C)c(C)c1 | inconclusive: 18.4 µM [cytotoxic, single point] |  |
| Cc1ccc(C(=O)NC(=S)Nc2ccc(NC(=O)c3cccc(Cl)c3)cc2)cc1 | inactive |  |

| Compound | Potency | activity change, negative = cytotoxicity |
| --- | --- | --- |
| CCN(CC(=O)NC(=O)NCc1ccccc1)Cc1nc2ccccc2c(=O)[nH]1 | inconclusive: 7.31 µM [cytotoxic, partial curve] |  |
| C=CCn1c(SCC(=O)c2ccc(F)cc2)nnc1-c1ccc2c(c1)OCO2 | inconclusive: 29.1 µM [cytotoxic, single point] |  |
| Cn1cnnc1SCC(=O)Nc1ccccc1C(=O)NC1CC1 | inconclusive: 23.1 µM [rising, partial curve] |  |
| COc1cc(C(=O)C(=O)N2CCC(Cc3ccccc3)CC2)cc2ccccc12 | inconclusive: 20.6 µM [cytotoxic, partial curve] |  |
| CC/C(C)=N/Oc1nc(C)cc(C)n1 | inconclusive: 16.4 µM [cytotoxic, single point] |  |
| CN(C)c1ccc(/C=C2\N=C(C(C)(C)C)OC2=O)cc1 | inactive |  |
| O=C(N/N=C/c1ccc[nH]1)c1c[nH]c2ccccc12 | inactive |  |
| CSCCC(NC(=O)c1cccc(S(=O)(=O)N2CCN(C(C)=O)CC2)c1)c1nc2ccccc2[nH]1 (configuration not stated) | inconclusive: 5.8 µM [cytotoxic, partial curve] |  |
| CCCCc1cc2c(c(NC(=O)CC)n1)c(=O)oc1ccccc12 | active: 16.4 µM |  |
| Cc1ccccc1-c1nnc(C2CCN(S(=O)(=O)c3ccc(Cl)cc3)CC2)o1 | inactive |  |
| COc1cc(C=Cc2nnc3c4ccccc4cnn23)cc(OC)c1OC | inactive |  |
| Cc1c(C(=O)NCCC2=CCCCC2)oc2ccc(S(=O)(=O)N3CCC4(CC3)OCCO4)cc12 | active: 16.4 µM |  |
| N#Cc1ccccc1OCC(=O)NC(=O)NCc1ccccc1 | inconclusive: 32.6 µM [rising, partial curve, poor fit] |  |
| CC(Sc1nnc(-c2cccnc2)n1N)C(=O)NCCC1=CCCCC1 (configuration not stated) | inactive |  |
| COc1ccc(C(O)C(CN2CCOCC2)c2ccccc2)cc1F (configuration not stated) | inactive |  |
| COc1ccc(OCCCC(=O)Nc2cccc(C(C)=O)c2)cc1 | inactive |  |
| COc1ccc(NS(=O)(=O)c2csc(C(=O)Nc3ccccc3)c2)cc1 | inconclusive: 16.4 µM [cytotoxic, partial curve] |  |
| Cc1c(-c2ccnc3cc(C(=O)O)nn23)cnn1C | inconclusive: 20.6 µM [rising, partial curve, poor fit] |  |
| COc1cccc(/C=N/NC(=O)c2[nH]c(C)c(C(=O)N/N=C/c3cccc(OC)c3O)c2C)c1O | inactive |  |
| O=C(Cn1ccc(C(F)(F)F)n1)Nc1cccc(S(=O)(=O)N2CCCCC2)c1 | inconclusive: 29.1 µM [cytotoxic, single point] |  |
| CCCN(CCC)C(=O)Cc1coc2ccc3ccccc3c12 | inconclusive: 32.6 µM [cytotoxic, single point] |  |
| O=C1c2cccc3c(N4CCCCC4)ccc(c23)C(=O)N1c1ccccc1O | inactive |  |
| Cc1nn(-c2ccccc2)c(C)c1/C=N/Nc1nc2ccccc2[nH]1 | inconclusive: 20.6 µM [cytotoxic, single point] |  |
| O=C(NCC(c1ccco1)N1CCc2ccccc2C1)c1ccc(Br)cc1 (configuration not stated) | inconclusive: 13 µM [cytotoxic, partial curve] |  |

| Compound | Potency | activity change, negative = cytotoxicity |
| --- | --- | --- |
| Cc1nc(SCCC(=O)O)c2cc(-c3ccccc3)sc2n1 | inactive |  |
| O=C(CN1CCN(c2ncccn2)CC1)Nc1ccccc1-n1cccc1 | active: 11.6 µM |  |
| CCOc1ccc(-c2c(C(=O)N/N=C/c3ccccc3)nnn2-c2nonc2N)cc1 | inactive |  |
| O=C(O)C1CCCCC1C(=O)N1CC=C(c2ccccc2)CC1 (configuration not stated) | inconclusive: 16.4 µM [rising, partial curve, poor fit] |  |
| O=S(=O)(Nc1nc2ccccc2nc1NCc1ccco1)c1ccc(Cl)cc1 | inconclusive: 29.1 µM [cytotoxic, single point] |  |
| COC(=O)c1c(NC(=O)C(Cl)Cl)sc2c1C(C(=O)OC)CC2 (configuration not stated) | inactive |  |
| CCCCC(NC(=O)Cc1c(C)c2cc3c(-c4ccccc4)coc3c(C)c2oc1=O)C(=O)O (configuration not stated) | inconclusive: 32.6 µM [rising, partial curve, poor fit] |  |
| O=C(CCNC(=O)c1ccc(Cl)cc1)Nc1ccccc1N1CCCC1 | inconclusive: 5.8 µM [cytotoxic, full curve, poor fit] |  |
| C=CCC[C@H](Cc1ccc(F)cc1)C(=O)OC[C@@H](NC(=O)[C@@H](CC=C)CC(=O)N[C@H](CO)Cc1ccccc1)C(C)(C)C | inconclusive: 29.1 µM [cytotoxic, single point] |  |
| Oc1[nH]c(N=C2N=c3ccccc3=N2)c2ccccc12 | inconclusive: 29.1 µM [cytotoxic, single point] |  |
| Fc1ccccc1CSc1nc2ncc(Br)cc2[nH]1 | inconclusive: 29.1 µM [cytotoxic, single point] |  |
| NC1=NC[C@@H](Cc2ccc(O)cc2)N1CCCCC1CCCCC1 | inconclusive: 6.51 µM [rising, single point] |  |
| COc1ccc(C2C(C#N)=C(N)Oc3c2sc2nc(C)cc(C)c32)cc1 (configuration not stated) | active: 20.6 µM |  |
| O=C(c1ccco1)N1CCN(S(=O)(=O)c2ccc(C3CCCCC3)cc2)CC1 | inconclusive: 6.51 µM [cytotoxic, full curve, poor fit] |  |
| CC(C)c1cc(C(C)C)c(S(=O)(=O)NC(c2ccccn2)C23CC2C3)c(C(C)C)c1 (configuration not stated) | inactive |  |
| CCc1c(C)nc2ncnn2c1Nc1ccc(C)c(C)c1 | inconclusive: 29.1 µM [cytotoxic, single point] |  |
| CCOC(=O)C(=O)N(C)c1c(CC)nc2c(OCCC3CCCCC3)cccn12 | inactive |  |
| O=c1c2ccccc2nnn1CSc1nnc(COc2ccc(Cl)cc2)n1Cc1ccco1 | inconclusive: 29.1 µM [cytotoxic, single point] |  |
| NC(=O)CC(NC(=O)c1cccc(Br)c1)c1ccc(N2CCC(N3CCCCC3)CC2)c([N+](=O)[O-])c1 (configuration not stated) | inconclusive: 32.6 µM [rising, single point] |  |
| O=C(CN1CCSc2ccccc21)N1CCN(c2cccc(Cl)c2)CC1 | inconclusive: 9.2 µM [cytotoxic, partial curve] |  |
| CC(=O)N(/N=C/c1ccc(C)cc1)c1nc(CCl)cs1 | inactive |  |
| CC1CCC(NC(=O)c2ccc(NC(=O)CC3SC(N4CCCC4)=NC3=O)cc2)CC1 (configuration not stated) | inconclusive: 16.4 µM [rising, single point] |  |
| COc1ccccc1C(=O)N1CCN(c2nc3cc(C)c(C)cc3cc2C#N)CC1 | inactive |  |
| CC12CCC(C(=O)N(CSC(=S)N/N=C\c3ccccc3O)C1=O)C2(C)C (configuration not stated) | inactive |  |

Fetched one by one from above:

| Compound | Potency | activity change, negative = cytotoxicity |
| --- | --- | --- |
| CCc1c(C)nc2ncnn2c1Nc1ccc(C)c(C)c1 | inconclusive: 29.1 µM [cytotoxic, single point] |  |
| CCOc1ccc(-c2c(C(=O)N/N=C/c3ccccc3)nnn2-c2nonc2N)cc1 | inactive |  |
